Values quoted from earlier work, collected in US20160113981A1, “TOPICAL COMPOSITION” (priority 2014, published 2016).
Some entries share one result that the patent states for a list of compounds.

Details: after topical application of lavender oil

For C=CC(C)(O)CCC=C(C)C (stereo not shown) [linalool], the “time by which largely disappeared from the blood” value is given as at most 90 min.
